# PubChem BioAssay AID1259254 | NCATS – 2017
# Assay: 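Finding genes that stop cells copying their DNA twice in one cycle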 (primary screen)
# Cells: human HCT116 colorectal cancer cells
# Knock-down reagent: single siRNA against human genes
# Duration: 3 days
# Detection: 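Imaged Hoechst DNA stain sorts each cell into a cycle phase by DNA amount; per plate, G2 fraction set to 0% for non-targeting and 100% for GMNN siRNA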
# Direction: G2 robust z-score and G2 cells, % of GMNN control: higher = more G2 cells, more excess DNA replication; raw share of cells in G2: higher = larger share of cells with G2 DNA content
# Active means: 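Active siRNAs have a G2 robust z of 5 or more median absolute deviations over the median, which in these data means about 38% or higher of GMNN control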
# The whole screen tested about 59,000 reagents; below is a part drawn at random. About 1,550 of all reagents (2.6%) were called active. 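G2 share is only a proxy for re-replication; each gene was hit by three separate siRNAs, and active genes were retested.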 Raw values vary from plate to plate and are shown uncorrected. The numbers tell different reagents against one gene apart. Reagent sequences are not shown. Not given: the amount of reagent.
Target gene,reagent no.,G2 robust z-score,"G2 cells, % of GMNN control",raw share of cells in G2 (%),call
DNAJB1,1,0.277,4.92,4.89,inactive
DNAJB1,2,-0.67,-1.75,2.77,inactive
DNAJB1,3,0.0401,3.25,6.37,inactive
VAMP7,1,0.0872,3.58,4.88,inactive
VAMP7,2,0.555,6.88,8.07,inactive
VAMP7,3,-0.25,1.21,3.55,inactive
LCP2,1,3.56,28,16.6,inactive
LCP2,2,-1.15,-5.11,3.38,inactive
LCP2,3,-0.361,0.425,3.34,inactive
CCDC69,1,0.763,8.34,7.55,inactive
CCDC69,2,0.311,5.15,5.1,inactive
CCDC69,3,-1.02,-4.23,2.82,inactive

Copied from the list:
Result for LCP2 #3 under “raw share of cells in G2 (%)”: 3.34
Value of DNAJB1 #2 under “G2 cells, % of GMNN control”: -1.75
Entry of DNAJB1 #3 under “G2 robust z-score”: 0.0401

The listing continues:
Target gene,reagent no.,G2 robust z-score,"G2 cells, % of GMNN control",raw share of cells in G2 (%),call
SEMA4D,1,-1.18,-5.35,2.11,inactive
SEMA4D,2,0.722,8.04,9.19,inactive
SEMA4D,3,-1.34,-6.46,3.93,inactive
SEMA4D,4,-0.189,1.64,4.55,inactive
SEMA4D,5,-0.513,-0.645,2.98,inactive
SEMA4D,6,0.151,4.03,5.81,inactive
MCM3,1,-0.674,-1.78,2.61,inactive
MCM3,2,-1.16,-5.2,3.41,inactive
MCM3,3,2.42,20,13.1,inactive
TMEM181,1,2.52,20.7,12.5,inactive
TMEM181,2,-0.498,-0.537,4.2,inactive
TMEM181,3,-0.366,0.393,3.15,inactive
MED25,1,3.2,25.5,17.4,inactive
MED25,2,-0.357,0.456,2.95,inactive
MED25,3,0.365,5.54,5.37,inactive
METTL23,1,0.456,6.18,6.57,inactive
METTL23,2,-0.579,-1.11,3,inactive
METTL23,3,-0.778,-2.51,1.09,inactive
